Measured values: US20050227272A1
Results are given in words; binding and its absence hold for the method and conditions named. Binding seen in cells or lysates may run through a third protein. A result given as binding can be weak or reduced; the word gives no strength. Tags and fused reporters may be left off the sequences shown.

Columns and labels:
Experiment in all cases: anti-His pull-down of His-SUMO4 complexes, 2D PAGE, MALDI-TOF/TOF
[1] = target: platelet-activating factor acetylhydrolase, isoform Ib
carbonate hydrolyase = target: carbonate hydrolyase
WD-repeat protein = target: WD-repeat protein
TPMsk3 = target: TPMsk3
[2] = target: anti-colorectal carcinoma heavy chain
[3] = target: Mitochondrial Creatine Kinase
[4] = target: phosphoribosyl pyrophosphate synthetase
[5] = target: moesin/anaplastic lymphoma kinase fusion protein
similar to Esterase D = target: similar to Esterase D
Pro2675 = target: Pro2675
[6] = target: Kunitz-type protease inhibitor
[7] = target: acyl-Coenzyme A dehydrogenase
Trp26 = target: Trp26
Pyruvate kinase = target: Pyruvate kinase
thioredoxin-like protein = target: thioredoxin-like protein
[8] = target: eukaryotic translation initiation factor 3

Measured: binding

B1: His-tagged SUMO4 expressed in HEK293 cells from pcDNA3.1 (protein, not shown: small tags and cut ends)
chain: MANEKPTEEVKTENNNHINLKVAGQDGSVVQFKIKRQTPLSKLMKAYCEPRGLSMKQIRFRFGGQPISGTDKPAQLEMEDEDTIDVFQQPTGGVY
binds: all assays above
